Laboratory results as given in paper PMC5718073.

Sequences of proteins named here, by UniProt entry; tags and fusion partners are left off. A change or cut given only in a name is not applied to a line headed by its entry.
UniProt Q9V460: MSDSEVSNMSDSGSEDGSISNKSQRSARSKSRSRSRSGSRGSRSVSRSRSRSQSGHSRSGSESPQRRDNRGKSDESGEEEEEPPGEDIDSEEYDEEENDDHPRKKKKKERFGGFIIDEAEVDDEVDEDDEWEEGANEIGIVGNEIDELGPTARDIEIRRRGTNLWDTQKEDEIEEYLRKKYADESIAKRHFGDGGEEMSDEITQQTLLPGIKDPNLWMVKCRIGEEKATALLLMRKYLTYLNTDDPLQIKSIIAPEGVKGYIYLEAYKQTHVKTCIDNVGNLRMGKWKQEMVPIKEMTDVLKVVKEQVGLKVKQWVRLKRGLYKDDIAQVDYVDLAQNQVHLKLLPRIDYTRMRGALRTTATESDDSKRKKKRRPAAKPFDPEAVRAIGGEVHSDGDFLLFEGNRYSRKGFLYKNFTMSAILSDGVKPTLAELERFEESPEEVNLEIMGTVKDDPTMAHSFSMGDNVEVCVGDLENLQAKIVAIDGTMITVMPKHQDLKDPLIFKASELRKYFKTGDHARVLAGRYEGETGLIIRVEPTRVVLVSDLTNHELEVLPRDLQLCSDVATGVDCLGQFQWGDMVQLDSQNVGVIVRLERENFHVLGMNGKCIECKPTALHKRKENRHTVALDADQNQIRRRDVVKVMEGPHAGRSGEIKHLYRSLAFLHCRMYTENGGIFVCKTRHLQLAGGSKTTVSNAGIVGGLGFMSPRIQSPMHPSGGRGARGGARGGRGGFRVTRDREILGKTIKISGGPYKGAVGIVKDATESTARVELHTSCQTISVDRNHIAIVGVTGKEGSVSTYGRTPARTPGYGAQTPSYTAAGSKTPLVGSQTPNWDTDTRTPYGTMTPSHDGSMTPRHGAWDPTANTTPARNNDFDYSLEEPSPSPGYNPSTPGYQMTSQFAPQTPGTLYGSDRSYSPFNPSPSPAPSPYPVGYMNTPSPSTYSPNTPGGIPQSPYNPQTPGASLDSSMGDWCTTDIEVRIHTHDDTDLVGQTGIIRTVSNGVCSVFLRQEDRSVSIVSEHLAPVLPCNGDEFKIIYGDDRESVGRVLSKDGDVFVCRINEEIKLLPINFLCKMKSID
UniProt Q8ST83: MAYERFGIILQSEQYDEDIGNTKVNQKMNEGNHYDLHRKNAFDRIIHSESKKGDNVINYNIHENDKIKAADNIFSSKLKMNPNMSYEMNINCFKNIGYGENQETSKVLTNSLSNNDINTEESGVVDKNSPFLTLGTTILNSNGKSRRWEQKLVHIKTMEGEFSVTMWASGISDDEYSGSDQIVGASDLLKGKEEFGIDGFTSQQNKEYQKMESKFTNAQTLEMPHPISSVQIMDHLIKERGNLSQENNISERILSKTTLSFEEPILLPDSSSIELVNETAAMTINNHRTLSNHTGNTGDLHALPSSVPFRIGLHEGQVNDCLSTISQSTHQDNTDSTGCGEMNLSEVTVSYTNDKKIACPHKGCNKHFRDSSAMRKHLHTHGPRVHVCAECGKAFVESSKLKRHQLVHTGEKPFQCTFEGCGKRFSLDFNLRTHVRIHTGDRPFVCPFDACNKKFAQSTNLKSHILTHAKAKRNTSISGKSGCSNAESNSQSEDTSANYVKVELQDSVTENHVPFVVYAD

Molecular target: FLAG-tagged Spt5 (Drosophila) (UniProt Q9V460)
Experiment: co-IP; S2 DRSC cells transiently co-transfected with a FLAG-tagged and an HA-tagged construct; lysis in 50 mM Tris pH 7.5, 150 mM NaCl, 1% NP40, 1 mM EGTA, 20 mM NaF; anti-FLAG IP on Protein G Dynabeads at 4 °C, anti-HA Western blot; cells at 25 °C, heat shocked (37 °C, 15 min) and recovering, or treated with radicicol, flavopiridol + heat shock, sodium salicylate, HSF or LacZ RNAi

binding: binds weakly
Substance: HA-tagged Pho ΔREPO (from UniProt Q8ST83)

These are yes or no findings as the source states them, for the method shown. In cells and extracts the contact can be indirect. Binding can be weak; no strength is given.
